These are yes or no findings as the source states them, for the method shown.

For experiment [1], the target named is IP3-4 kinase from Candida albicans (CaIpk2) (Candida albicans (strain SC5314)) (UniProt Q59YE9). Briefly: SEC-MALS; SEC-MALLS (Wyatt Technology) of the purified, GST-cleaved recombinant enzyme to determine its multimerization state; buffer and concentration not stated; both purified. For orientation: Size exclusion chromatography separates by hydrodynamic size, large species first.

In experiment [2] the target is IP3-4 kinase from Cryptococcus neoformans (CnArg1) (Cryptococcus neoformans var grubii (strain H99)) (UniProt J9W3G0). Described as above.

B1: IP3-4 kinase from Candida albicans (CaIpk2) (enzyme, UniProt Q59YE9 1-350)
chain: MIPTLNSLTPSKHQAAGHDGCLATDSLFIKLTVQQEIDFYTQVQSHDQSVQDAPLGSQLSHWMPTFMGTLTQGDVSKTQTAGSDQSSSAEGQTDKQYIVLSNSYHGFTHPSILDIKLGAKLTDDEVTAPEKIARLQKVSDSTTSGSLNFRICGMKVYNGKSDTKPANELYENMNDSSVSVNINDADDHKYLEFNKFYGRSLSKDNIKEGLELYFNNHLPKAIVKRLLVVFHKRLQLLYNCLLDYEVRIFSGSLLFIYESDLTKWENVTEDNYDTYDSLVREIVDDEDEDDEEFEEDSKKDKTQPLTPLSSLNFIDFAHAKFVEGQGHDENIVQGIENLIDIFNALIAKYD
On to B1, for which the binding entry in experiment [1] is reported as “no binding”.

B2: IP3-4 kinase from Cryptococcus neoformans (CnArg1) (enzyme, UniProt J9W3G0 1-435)
chain: MDLPLTLDDHIPFSHQVAGHPGVMSDPSGSLVIKPALPREIAFYQLLSNSDPEDIVWPLRKFVPKNYGTLRLEGRIGAAGGVETDLDVQDEVPESVVLANLAYAYTRPNIMDVKLGTVLYAPYATDEKRQRMDRQARETTTYETGIRLTGCQTWHAPTQSYISTPKSFGKSITPPQLSQGMVRFFPLPTDSIPSLVTLPSPPPTAVEVVSTVAASQLPIPAQTSCASVIQSSTSIPIPPSTPISPDPAAIASIFPASTDPENSPTYENHSIPPPTLARLLTLLLQKLDQLTAVLSTLEMRFVGASLLVVYEGDPIRLEAALDREEAKVQEESEEKEKRDGERSMFSDDGSIDFSDSDADSDEDDEEEYDSDDELDGKKKDERRASKCPALTLKLIDFAHTWLAQGEGPDEGVLKGLKTFRSLVEGRLEEVERGCV
Regarding B2, the binding result in experiment [2] was “no binding”.

For the origin of these results see PMC9599641, “TNP Analogues Inhibit the Virulence Promoting IP3-4 Kinase Arg1 in the Fungal Pathogen Cryptococcus neoformans” (Biomolecules, 2022).
